These are yes or no findings as the source states them, for the method shown. Binding seen in cells or lysates may run through a third protein. Some binding calls cover weakened binding; strength is not graded here.
Assays:
Assay in all cases: FRET or BRET
[1] = biological target: CASQ1-GFP (CASQ1 amino acids 1-396 with C-terminal GFP) (human) (UniProt P31415)
[2] = biological target: ssGFP-CASQ1 (CASQ1 amino acids 1-396 with EGFP between residues 49 and 50) (human) (UniProt P31415)
[3] = biological target: ssGFP-CASQ1 S248/369E (human) (UniProt P31415)

CASQ1-GFP (CASQ1 amino acids 1-396 with C-terminal GFP) (from UniProt P31415 35-396)
binding [1]: binds

ssGFP-CASQ1 (CASQ1 amino acids 1-396 with EGFP between residues 49 and 50) (from UniProt P31415 35-396)
binding [2]: binds

ssGFP-CASQ1 S248/369E (from UniProt P31415 35-396)
binding [3]: binds
